{"source": "paper PMC11643744", "about": "(Molecules, 2024)", "test": "general procedure: Fmoc solid-phase peptide synthesis; TentaGel S RAM resin (loading 0.25 mM/g); TBTU/HOBt/N-methylmorpholine", "conditions": "whole synthesis", "note": "Strings that start with PEPTIDE1 are HELM notation: dots part the residues, brackets hold end groups and non-standard residues."}
{"substance": "PEPTIDE1{A.G.Y.L.L.G.K.I.N.L.K.A.L.A.A.L.A.K.K.I.L.[am]}$$$$V2.0", "values": [{"measurement": "isolated yield", "result": 34, "unit": "%"}]}
{"substance": "PEPTIDE1{[Prop].Y.G.R.K.K.R.R.Q.R.R.R.[am]}$$$$V2.0", "values": [{"measurement": "isolated yield", "result": 24, "unit": "%"}]}
{"substance": "PEPTIDE1{[Prop].R.R.R.R.R.R.R.R.R.[am]}$$$$V2.0", "values": [{"measurement": "isolated yield", "result": 24, "unit": "%"}]}
